These results are taken from PMC2686265, “ATP and MO25α Regulate the Conformational State of the STRADα Pseudokinase and Activation of the LKB1 Tumour Suppressor” (PLoS Biology, 2009).

Sequences of proteins named here, by UniProt entry; tags and fusion partners are left off. A change or cut given only in a name is not applied to a line headed by its entry.
UniProt Q9Y376: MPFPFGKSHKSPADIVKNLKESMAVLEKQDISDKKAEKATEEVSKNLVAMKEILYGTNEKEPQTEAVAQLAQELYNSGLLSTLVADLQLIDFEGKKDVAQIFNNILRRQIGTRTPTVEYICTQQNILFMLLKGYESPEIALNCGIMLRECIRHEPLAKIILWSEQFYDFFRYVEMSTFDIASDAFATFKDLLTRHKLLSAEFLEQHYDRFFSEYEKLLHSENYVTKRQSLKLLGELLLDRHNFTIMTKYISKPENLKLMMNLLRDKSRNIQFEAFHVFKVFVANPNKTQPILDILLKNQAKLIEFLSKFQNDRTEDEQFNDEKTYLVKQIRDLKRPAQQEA

These are yes or no findings as the source states them, for the method shown. Binding seen in cells or lysates may run through a third protein. A result given as binding can be weak or reduced; the word gives no strength. Tags and fused reporters may be left off the sequences shown.

In the assay the target is T1, GST-STRADα (wild type) (human) (UniProt Q7RTN6).
T1 sequence: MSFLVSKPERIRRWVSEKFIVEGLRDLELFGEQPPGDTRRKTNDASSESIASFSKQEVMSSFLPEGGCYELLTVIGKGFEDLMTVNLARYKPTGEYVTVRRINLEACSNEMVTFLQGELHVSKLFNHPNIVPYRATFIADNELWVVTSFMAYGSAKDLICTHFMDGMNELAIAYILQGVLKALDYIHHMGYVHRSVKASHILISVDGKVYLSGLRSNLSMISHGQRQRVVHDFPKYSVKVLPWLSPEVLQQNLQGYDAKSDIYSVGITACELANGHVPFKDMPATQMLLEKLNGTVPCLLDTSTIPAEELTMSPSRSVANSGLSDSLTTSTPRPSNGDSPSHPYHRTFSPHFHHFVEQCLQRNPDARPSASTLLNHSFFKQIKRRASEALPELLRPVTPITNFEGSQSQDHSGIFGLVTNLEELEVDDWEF
Kind of assay: pull-down; GST-STRADα and MO25α (Myc-tagged or untagged) co-expressed in 293 cells, lysed 36 h post-transfection, GST-STRADα purified on glutathione-Sepharose, immunoblot. Background: In western blotting, separated proteins are transferred to a membrane and probed.

With “Myc-MO25α mutated at Lys231 (from UniProt Q9Y376)”, the binding result was “binds”.
As for “Myc-MO25α mutated at Lys96 (αE site) (from UniProt Q9Y376)”, the binding result is given as “no binding”.
With “Myc-MO25α mutated at Glu93 (αE site) (from UniProt Q9Y376)”, the binding entry was “no binding”.
On to “Myc-MO25α mutated at Tyr223 (αB site) (from UniProt Q9Y376)”, for which the binding result is reported as “no binding”.
As for “Myc-MO25α mutated at Arg227 (αB site) (from UniProt Q9Y376)”, the binding entry is “no binding”.
The result for “Myc-MO25α mutated at Met260 (WEF pocket) (from UniProt Q9Y376)” reads “no binding”; that for “Myc-MO25α mutated at Asn269 (from UniProt Q9Y376)”, “binds”; that for “Myc-MO25α mutated at Phe92 (αE site) (from UniProt Q9Y376)”, “no binding”.
The result for “Myc-MO25α mutated at Leu141 (from UniProt Q9Y376)” reads “binds”.
